Laboratory results taken from publication PMC3124540, “A Minimum of Three Motifs Is Essential for Optimal Binding of Pseudomurein Cell Wall-Binding Domain of Methanothermobacter thermautotrophicus” (PLoS ONE, 2011).
Results are given in words; binding and its absence hold for the method and conditions named. Where a sequence is shown, tags or fusion partners need not be part of it.

Biological target: three pseudomurein binding motifs with C-terminal ten-Histidine tag (3P-His10), the PMB domain of MTH719 (Methanothermobacter thermautotrophicus) (UniProt O26815)
Test: SEC; Superdex 200 10/300 GL, room temperature, 50 mM NaH2PO4, 150 mM NaCl, pH 9.0; calibrated with globular proteins; both purified

- binding: no binding (condition: at pH 9.0)
B1: three pseudomurein binding motifs with C-terminal ten-Histidine tag (3P-His10), the PMB domain of MTH719 (domain or fragment, Methanothermobacter thermautotrophicus)
chain: MGGGFAASVKISVRQLTDAASWVRAYYGRYGRLPGKVTISGHGYSMAQFLYLLCRATVNINAGNVAPISVKSVASAPASGGWYRHGRLYRSSYVRVAKNILSFIDSRGRAPNYAITGLGRIPFQRLVYMYSKIIKFYGTNKRLPNYVTI
notes: short N-terminal peptide region resulting from the cloning procedure (LIC); also called PMB domain 3P-His10; 3P-His10 PMB domain; source: E. coli Rosetta gami 2 (pBADcLIC, arabinose induced), purified (Ni-NTA); not shown: His10, C-terminal, kept
